Part of at least one peptide drawing is inferred or uncertain, most often the ends. Peptide text beside a SMILES is read from it.
Test: Oscillation rheology of casted crosslinkable gels (frequency and amplitude sweep)
Assay type: physicochemical
Settings: with increasing crosslinking degree, H2O2 0-0.2%
Procedure: Peptide was dissolved in 200 µL of water +/- H2O2 and filled into custom-made hollow ring casts (diameter ∼1 cm). The ring ends were sealed with parafilm to minimise evaporation and the cast was kept at 25°C for 22 hours before further manipulations.
(§1) Rheology: The rheological properties of casted gels were measured with an ARES-G2 (TA Instruments, USA) using the oscillation method. Frequency-sweep studies were performed with ω=0-100 rad/s at strain, γ=0.1%. The gel stiffness was represented by plotting G' against ω. Amplitude-sweep studies were performed beforehand at 1 Hz with γ=0-100%. The LVE limit of the gel was defined as the value of γ when G' first dropped below 90% of the average initial value.
as §1, with “The” for “Rheology: The”

CC[C@H](C)[C@H](NC(C)=O)C(=O)N[C@H](C(=O)N[C@@H](CCCCN)C(=O)N[C@@H](CS)C(=O)O)C(C)C [Ac-IVKC] (Ac-IVKC-OH)
gel stiffness (G') achieved: ~1 MPa

Reference: patent EP2958933B1, “CROSSLINKED PEPTIDE HYDROGELS” (Agency for Science, Technology and Research, priority 2013, dated 2018)
